In patent US7015215B2, “Pyrrolo[2,1-c][1,4] benzodiazepines compounds and process thereof” (Council of Scientific and Industrial Research, priority 2003, dated 2006):
For at least one compound, name, drawing or mass did not settle the structure.

How the values were obtained:
M14 = experiment: NCI SRB cytotoxicity, Melanoma M14; format: cell-based, human; details: 48 h
SF-268 = experiment: NCI SRB cytotoxicity, CNS SF-268; format: cell-based, human; details: SF-268, CNS, 48 h

In the case of `COc1cc2c(cc1OCCCCCN1CCN(CCCCCOc3cc4c(cc3OC)C(=O)N3CCC[C@H]3C=N4)CC1)N=C[C@@H]1CCCN1C2=O` [Compound VId], the “Log LC 50” value (M14) is reported as −4.00 mol/L and the “Log LC 50” value (SF-268) is reported as −4.00 mol/L.
